# Assay results

Data taken from PubChem BioAssay AID1159506, deposited by NCATS (2015).

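Genome-wide siRNA knockdown in TC32 Ewing sarcoma cells, comparing luciferase light from an NR0B1-promoter reporter with a CMV-promoter reporter 48 hours after transfection.
Each siRNA was applied at 20 nM.
A z-score of the log NR0B1-over-CMV signal, less the median of siRNAs with the same seed; more negative means a stronger specific loss of the NR0B1 reporter.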

This is part of the screen; most of the strongest results are not listed here.
Sequences are the guide (antisense) strand, without overhang.

strand,gene,seed-corrected z-score
UAAGGAAGGAUCCACUUUG,RER1,0.581
UAGAUCUCCGUGUAGUUGC,BEND3,0.4065
AAAUCUCCACCGUUGUUCC,ITGB5,0.4269
UGCAGCACUAUUUUCUUCC,BARX1,0.8152
UUCGUGUCCAUUAAGGCUG,MFGE8,0.3296
UCCCUGUUGAGGAUCUCGU,LRRC37A4P,0.00782
UGGAUCUCCAUGUAUUUGU,MGAT5B,0.46
UGUCGUAUCGCUCCUCAUC,TNNI1,0.09558
UUCAGUGCGAGAGUCUAGG,TIMM8B,-0.758
UACGAUACAAGCGAACUGC,OGT,0.04693
UUAGAGAUGAUGGACCUGG,FSIP1,1.46
UUGAAUAAUCUACAUUUGC,SERTAD4-AS1,0.3773
UUCAGAGCGAAUCCAAUGG,CASR,0.8964
UUGCGUUUGAGGAUGAGCA,ENTHD2,0.7638
UACGAAUAUACAAGCAUCC,S1PR3,-0.4201
AAAUUCUUCAUAAUAUCUG,GALNS,-0.3077
UGCGGAGUCGGUCAAAGUC,EPN1,0.8831
AUAACCAAAAUUAACUUCC,FRA10AC1,0.4799
UUCUUCAUAAACACGAUCC,MS4A2,0.01783
UAUCAAAUCUGUCUCUGAC,RHCE,0.2354
UCCCAGGUAAGUCACAUGC,FUT5,0.4362
UUUCGUUACUGAGAUCUCG,FAM186A,0.4512
UCUGGUCUAAUAUUGUAGC,PLEKHA4,-0.5579
UCAAUAGUUCGGAUGCUUG,C3orf62,0.1714
CACGAUGCCAAGAGAAUCC,DHRS4L1,-0.2886
UAAUGUGCACGUACGUCUC,C1QTNF6,0.02066
UCAUGUUUCGGUAGCUUUC,TMEM182,-0.01271
UUUGGAGAACCAUUGUAGC,TFCP2L1,0.08718
UUACUGAAAAGAUAGUCUG,MEGF9,0.6084
AAAGGUGUCCGUCUCCACG,FGF8,-0.6184
AUCUGUCUCACAGUUUACC,TSFM,-0.3235
AAGGGCAUCAUGUACAUCC,MTRR,-1.539
UUGUAUACCACUGUCAGGC,COPZ1,-1.855
AAAGCGAAGGUAAAGAGUG,SHOC2,-0.2316
AAACGUAAUUUAUUCCUCC,LRRC40,-0.1848
UUCUAUCUCACAAGUACAG,LRRC17,-0.03503
UUAGUCUCCAGACUCCUCC,NCAPG2,0.6155
UGUUGGUCAUCAAUGAUGU,FAM57B,1.202
UAUACGUCAGACAUAGGGU,CECR5,-0.05923
AUGAUAAACGCAGAAGUGC,OR2J2,-0.3593
UUUGCACUAAUUAAAAACC,TTYH2,0.423
UUGUCCACAAUAGAGGUUC,TRAPPC10,-0.3612
UAUCCUAAUACUGCCCGGG,TUFT1,0.09585
UUACCACUUCUUGAGAUCG,CCDC173,-0.2273
UUAUCCACGAAGGACUCCG,SAMD5,-0.103
UAUCUUGCGGCGGUUACGG,RAVER1,-1.25
UGUGGGAUCAGCAACCUUG,CBR1,-1.448
AUUGAUCCUAUCCAAACCC,PPP3CB,-0.4863
UUUACUCCUACACCACUCC,GPR149,0.5637
UCAUGGAUAAGGUGGUAGU,MGC70870,-0.5568
UUUUACUCUUUUGCCUUCC,NUDT2,-0.4806
UCAACAUUUAGGUGGGUUC,KLF10,0.3585
UUUUUAAGUAGUGGAAGUG,C2orf15,0.9717

Once more, the final 4:

| strand | gene | seed-corrected z-score |
|---|---|---|
| `UCAUGGAUAAGGUGGUAGU` | MGC70870 | -0.5568 |
| `UUUUACUCUUUUGCCUUCC` | NUDT2 | -0.4806 |
| `UCAACAUUUAGGUGGGUUC` | KLF10 | 0.3585 |
| `UUUUUAAGUAGUGGAAGUG` | C2orf15 | 0.9717 |